# Reference: the supplement of paper PMC12823440, “Inhibitors supercharge kinase turnover through native proteolytic circuits” (Nature, 2025)
# Protein sequences, listed by entry. Tags and fused reporters are not part of them. Lines headed by an entry give the natural chain unless they say otherwise; changes in a name come on top.
# UniProt P23458: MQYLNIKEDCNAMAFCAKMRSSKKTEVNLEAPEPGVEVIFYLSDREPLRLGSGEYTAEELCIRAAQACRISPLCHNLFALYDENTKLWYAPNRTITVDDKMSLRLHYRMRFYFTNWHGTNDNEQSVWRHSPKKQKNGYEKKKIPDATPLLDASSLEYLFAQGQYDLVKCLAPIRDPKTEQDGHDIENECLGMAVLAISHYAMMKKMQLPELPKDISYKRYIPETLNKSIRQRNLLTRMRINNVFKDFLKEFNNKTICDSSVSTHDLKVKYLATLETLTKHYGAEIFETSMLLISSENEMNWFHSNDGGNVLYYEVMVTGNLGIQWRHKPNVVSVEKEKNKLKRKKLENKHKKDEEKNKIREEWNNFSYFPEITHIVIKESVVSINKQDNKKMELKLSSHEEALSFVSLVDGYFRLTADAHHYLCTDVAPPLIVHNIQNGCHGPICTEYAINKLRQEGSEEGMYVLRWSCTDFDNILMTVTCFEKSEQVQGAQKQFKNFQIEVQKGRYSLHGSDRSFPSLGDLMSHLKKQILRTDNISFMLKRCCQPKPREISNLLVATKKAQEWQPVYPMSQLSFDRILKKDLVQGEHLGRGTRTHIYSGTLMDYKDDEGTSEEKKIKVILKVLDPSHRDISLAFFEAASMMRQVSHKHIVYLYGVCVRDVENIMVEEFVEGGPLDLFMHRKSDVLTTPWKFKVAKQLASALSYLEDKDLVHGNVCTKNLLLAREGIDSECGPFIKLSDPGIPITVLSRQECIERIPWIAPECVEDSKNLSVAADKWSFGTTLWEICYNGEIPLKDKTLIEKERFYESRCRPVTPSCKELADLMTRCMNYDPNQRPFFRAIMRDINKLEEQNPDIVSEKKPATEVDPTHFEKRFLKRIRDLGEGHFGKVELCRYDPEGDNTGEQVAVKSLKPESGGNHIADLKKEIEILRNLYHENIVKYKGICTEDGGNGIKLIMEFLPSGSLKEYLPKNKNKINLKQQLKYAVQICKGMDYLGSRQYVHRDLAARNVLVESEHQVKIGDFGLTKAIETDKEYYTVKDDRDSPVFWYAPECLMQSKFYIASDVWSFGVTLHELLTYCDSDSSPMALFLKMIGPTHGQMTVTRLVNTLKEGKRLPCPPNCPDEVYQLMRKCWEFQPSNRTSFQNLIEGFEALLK
# UniProt P53667: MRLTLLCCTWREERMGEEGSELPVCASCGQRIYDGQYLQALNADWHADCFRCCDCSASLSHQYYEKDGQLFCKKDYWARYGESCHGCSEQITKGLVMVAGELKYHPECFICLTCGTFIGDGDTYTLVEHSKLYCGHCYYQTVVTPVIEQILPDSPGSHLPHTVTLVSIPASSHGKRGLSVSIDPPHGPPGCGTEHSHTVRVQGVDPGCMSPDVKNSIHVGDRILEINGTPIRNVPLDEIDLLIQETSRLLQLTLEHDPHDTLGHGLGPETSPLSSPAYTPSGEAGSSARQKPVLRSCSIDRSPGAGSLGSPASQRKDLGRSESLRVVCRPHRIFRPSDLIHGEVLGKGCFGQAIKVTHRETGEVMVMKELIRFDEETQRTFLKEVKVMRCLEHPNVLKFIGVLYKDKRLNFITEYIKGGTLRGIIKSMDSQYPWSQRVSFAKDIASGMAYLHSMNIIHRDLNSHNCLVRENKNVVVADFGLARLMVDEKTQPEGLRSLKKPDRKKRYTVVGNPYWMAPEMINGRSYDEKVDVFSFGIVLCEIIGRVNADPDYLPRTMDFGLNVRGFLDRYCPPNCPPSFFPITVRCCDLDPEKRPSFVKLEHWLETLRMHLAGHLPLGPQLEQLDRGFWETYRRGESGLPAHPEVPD
# UniProt Q12851: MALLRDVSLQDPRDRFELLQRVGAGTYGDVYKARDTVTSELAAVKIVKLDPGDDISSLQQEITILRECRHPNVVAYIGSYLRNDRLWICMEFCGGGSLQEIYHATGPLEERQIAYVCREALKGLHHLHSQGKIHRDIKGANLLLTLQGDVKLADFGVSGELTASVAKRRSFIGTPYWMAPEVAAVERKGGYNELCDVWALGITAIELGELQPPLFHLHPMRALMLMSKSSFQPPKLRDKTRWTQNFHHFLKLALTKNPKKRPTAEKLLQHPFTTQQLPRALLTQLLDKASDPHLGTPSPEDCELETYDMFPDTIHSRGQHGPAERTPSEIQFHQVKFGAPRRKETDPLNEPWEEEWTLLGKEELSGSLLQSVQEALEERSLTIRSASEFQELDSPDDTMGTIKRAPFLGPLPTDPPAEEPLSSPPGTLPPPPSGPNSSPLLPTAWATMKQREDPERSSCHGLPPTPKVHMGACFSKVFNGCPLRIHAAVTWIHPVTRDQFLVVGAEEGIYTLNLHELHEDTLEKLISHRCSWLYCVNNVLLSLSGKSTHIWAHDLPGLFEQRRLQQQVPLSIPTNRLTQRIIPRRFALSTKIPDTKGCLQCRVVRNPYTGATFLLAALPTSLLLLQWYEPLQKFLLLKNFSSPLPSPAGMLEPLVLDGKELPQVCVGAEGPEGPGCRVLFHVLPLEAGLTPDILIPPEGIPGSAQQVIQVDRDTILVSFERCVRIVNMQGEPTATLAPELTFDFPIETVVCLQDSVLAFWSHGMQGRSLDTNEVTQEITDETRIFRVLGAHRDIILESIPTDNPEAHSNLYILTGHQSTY
# UniProt P28482, whole entry: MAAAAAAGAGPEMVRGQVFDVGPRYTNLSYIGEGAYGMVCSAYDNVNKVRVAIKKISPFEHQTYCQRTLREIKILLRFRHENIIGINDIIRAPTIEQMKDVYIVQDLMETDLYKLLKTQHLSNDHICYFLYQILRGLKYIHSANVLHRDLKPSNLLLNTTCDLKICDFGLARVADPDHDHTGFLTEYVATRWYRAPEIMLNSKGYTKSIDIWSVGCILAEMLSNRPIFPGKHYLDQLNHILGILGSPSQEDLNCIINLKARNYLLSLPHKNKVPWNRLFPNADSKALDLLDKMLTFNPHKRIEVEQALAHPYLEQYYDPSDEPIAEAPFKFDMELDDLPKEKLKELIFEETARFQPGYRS
# UniProt P49137, whole entry, looked up: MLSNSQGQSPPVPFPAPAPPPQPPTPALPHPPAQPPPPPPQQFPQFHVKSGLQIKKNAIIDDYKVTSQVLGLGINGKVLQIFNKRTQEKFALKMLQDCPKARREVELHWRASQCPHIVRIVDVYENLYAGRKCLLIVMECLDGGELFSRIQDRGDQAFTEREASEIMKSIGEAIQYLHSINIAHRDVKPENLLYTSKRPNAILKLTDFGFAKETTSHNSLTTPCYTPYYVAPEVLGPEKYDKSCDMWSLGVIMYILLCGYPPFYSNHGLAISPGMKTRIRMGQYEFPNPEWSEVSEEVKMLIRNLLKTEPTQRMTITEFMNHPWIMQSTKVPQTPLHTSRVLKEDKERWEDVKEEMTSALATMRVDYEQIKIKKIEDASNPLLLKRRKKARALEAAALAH
# UniProt Q16620, whole entry, looked up: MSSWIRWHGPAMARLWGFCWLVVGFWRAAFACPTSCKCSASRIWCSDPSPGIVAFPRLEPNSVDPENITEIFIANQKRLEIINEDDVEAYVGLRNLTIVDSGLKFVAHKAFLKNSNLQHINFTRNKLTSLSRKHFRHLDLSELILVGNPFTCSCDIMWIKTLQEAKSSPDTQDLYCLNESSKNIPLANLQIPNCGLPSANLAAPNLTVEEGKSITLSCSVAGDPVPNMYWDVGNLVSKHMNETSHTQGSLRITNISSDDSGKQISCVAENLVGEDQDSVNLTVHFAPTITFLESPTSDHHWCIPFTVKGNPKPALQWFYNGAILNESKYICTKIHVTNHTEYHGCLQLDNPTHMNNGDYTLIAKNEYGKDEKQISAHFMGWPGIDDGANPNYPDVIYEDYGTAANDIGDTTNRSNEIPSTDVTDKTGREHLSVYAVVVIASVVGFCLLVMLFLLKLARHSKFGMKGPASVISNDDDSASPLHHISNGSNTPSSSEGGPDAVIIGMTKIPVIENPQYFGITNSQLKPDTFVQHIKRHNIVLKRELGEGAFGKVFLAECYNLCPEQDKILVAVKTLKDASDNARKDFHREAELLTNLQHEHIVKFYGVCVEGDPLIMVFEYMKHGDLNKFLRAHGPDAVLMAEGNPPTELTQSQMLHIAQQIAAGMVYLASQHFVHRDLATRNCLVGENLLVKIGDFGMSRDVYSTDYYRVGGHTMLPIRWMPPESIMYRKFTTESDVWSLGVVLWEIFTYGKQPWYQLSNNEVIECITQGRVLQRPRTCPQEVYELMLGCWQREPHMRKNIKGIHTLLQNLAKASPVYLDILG
# UniProt Q16288, whole entry, looked up: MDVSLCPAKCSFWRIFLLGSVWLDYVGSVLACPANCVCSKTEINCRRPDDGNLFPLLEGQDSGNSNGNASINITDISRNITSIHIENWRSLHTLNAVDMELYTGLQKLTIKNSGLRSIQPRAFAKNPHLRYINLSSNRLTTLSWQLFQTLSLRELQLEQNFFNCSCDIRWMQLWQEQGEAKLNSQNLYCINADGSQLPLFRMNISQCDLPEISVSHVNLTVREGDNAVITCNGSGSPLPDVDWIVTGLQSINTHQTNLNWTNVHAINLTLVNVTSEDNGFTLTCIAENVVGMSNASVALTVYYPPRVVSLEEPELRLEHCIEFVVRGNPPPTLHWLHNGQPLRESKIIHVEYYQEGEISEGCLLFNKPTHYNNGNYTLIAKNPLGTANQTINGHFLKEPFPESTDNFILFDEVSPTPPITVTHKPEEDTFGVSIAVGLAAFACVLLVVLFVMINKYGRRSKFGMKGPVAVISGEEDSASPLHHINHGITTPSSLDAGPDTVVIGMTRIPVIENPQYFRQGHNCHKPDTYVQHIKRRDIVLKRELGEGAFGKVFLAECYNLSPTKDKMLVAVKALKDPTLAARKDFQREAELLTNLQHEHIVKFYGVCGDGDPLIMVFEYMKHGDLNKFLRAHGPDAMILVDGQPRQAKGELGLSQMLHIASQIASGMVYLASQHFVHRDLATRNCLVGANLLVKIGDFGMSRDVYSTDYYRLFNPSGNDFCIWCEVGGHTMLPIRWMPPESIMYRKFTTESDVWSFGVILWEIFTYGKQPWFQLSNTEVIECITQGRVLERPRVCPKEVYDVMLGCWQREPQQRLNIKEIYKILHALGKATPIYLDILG
# UniProt O96013: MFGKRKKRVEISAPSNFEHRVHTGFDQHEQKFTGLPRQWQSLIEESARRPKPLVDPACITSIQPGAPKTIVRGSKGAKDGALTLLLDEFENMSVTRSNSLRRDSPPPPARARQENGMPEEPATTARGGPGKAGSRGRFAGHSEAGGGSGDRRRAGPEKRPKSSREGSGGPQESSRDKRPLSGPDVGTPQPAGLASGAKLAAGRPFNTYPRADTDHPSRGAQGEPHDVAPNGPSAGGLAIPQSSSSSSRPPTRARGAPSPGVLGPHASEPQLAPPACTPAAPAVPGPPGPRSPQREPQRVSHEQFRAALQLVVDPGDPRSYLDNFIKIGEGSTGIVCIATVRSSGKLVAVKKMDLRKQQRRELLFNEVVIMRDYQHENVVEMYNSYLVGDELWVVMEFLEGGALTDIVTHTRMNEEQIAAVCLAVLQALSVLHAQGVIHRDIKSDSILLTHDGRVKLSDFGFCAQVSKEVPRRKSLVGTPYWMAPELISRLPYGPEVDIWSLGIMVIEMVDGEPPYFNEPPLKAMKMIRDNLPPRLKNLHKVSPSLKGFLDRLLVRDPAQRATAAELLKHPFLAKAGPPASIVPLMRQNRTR
# UniProt Q96KB5: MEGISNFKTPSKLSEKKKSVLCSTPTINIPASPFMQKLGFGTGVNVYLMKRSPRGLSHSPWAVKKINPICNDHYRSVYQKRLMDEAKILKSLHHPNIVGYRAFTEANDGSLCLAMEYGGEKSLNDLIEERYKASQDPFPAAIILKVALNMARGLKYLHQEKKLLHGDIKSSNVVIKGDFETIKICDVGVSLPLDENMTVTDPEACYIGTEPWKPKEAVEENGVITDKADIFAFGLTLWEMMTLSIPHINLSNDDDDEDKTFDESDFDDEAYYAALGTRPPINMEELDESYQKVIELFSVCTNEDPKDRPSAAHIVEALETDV
# UniProt Q15118, whole entry, looked up: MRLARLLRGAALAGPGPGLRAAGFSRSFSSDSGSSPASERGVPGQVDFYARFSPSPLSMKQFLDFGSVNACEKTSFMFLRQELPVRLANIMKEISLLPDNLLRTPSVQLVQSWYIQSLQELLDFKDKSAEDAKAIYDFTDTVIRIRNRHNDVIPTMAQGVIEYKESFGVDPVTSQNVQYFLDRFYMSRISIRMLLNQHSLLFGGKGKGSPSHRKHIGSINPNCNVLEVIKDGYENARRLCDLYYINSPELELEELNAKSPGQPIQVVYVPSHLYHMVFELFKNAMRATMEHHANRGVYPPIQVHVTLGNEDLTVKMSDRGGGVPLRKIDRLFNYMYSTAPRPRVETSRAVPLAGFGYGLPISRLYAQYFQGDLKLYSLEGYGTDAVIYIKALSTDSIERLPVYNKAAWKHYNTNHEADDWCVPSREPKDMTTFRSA
# Where a name gives a salt, the structure may show the parent alone. The list shows a part of the results. The calls rarely recur for the same compound in another form.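 Kinases, fused to nanoluciferase, were expressed in K562 cells; luminescence was measured every 4 h from 2 to 18 h as percent of control (DMSO = 100%, positive control = 0%). A time point is decreased if signal falls significantly (2 sigma). Hits were called by the authors by a rule that is not shown; the count of time points alone does not decide it.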
# How the values were obtained:
# Test in all cases: kinase-Nluc reporter destabilization hit call (1 = scored as downregulated) (binary); higher = compound decreases kinase abundance
# Conditions in all cases: K562; 2-18 h
# IRAK3 = IRAK3 (UniProt Q9Y616)
# JAK1 = JAK1 (UniProt P23458)
# LCK = LCK (UniProt P06239)
# LIMK1 = LIMK1 (UniProt P53667)
# LIMK2 = LIMK2 (UniProt P53671)
# LMTK2 = LMTK2 (UniProt Q8IWU2)
# LYN = LYN (UniProt P07948)
# MAP2K1 = MAP2K1 (UniProt Q02750)
# MAP2K2 = MAP2K2 (UniProt P36507)
# MAP4K2 = MAP4K2 (UniProt Q12851)
# MAPK1 = MAPK1 (UniProt P28482)
# MAPK4 = MAPK4 (UniProt P31152)
# MAPKAPK2 = MAPKAPK2 (UniProt P49137)
# MKNK1 = MKNK1 (UniProt Q9BUB5)
# NTRK2 = NTRK2 (UniProt Q16620)
# NTRK3 = NTRK3 (UniProt Q16288)
# PAK4 = PAK4 (UniProt O96013)
# PBK = PBK (UniProt Q96KB5)
# PDGFRB = PDGFRB (UniProt P09619)
# PDK1 = PDK1 (UniProt Q15118)
SMILES,kinase-Nluc reporter destabilization hit call (IRAK3),kinase-Nluc reporter destabilization hit call (JAK1),kinase-Nluc reporter destabilization hit call (LCK),kinase-Nluc reporter destabilization hit call (LIMK1),kinase-Nluc reporter destabilization hit call (LIMK2),kinase-Nluc reporter destabilization hit call (LMTK2),kinase-Nluc reporter destabilization hit call (LYN),kinase-Nluc reporter destabilization hit call (MAP2K1),kinase-Nluc reporter destabilization hit call (MAP2K2),kinase-Nluc reporter destabilization hit call (MAP4K2),kinase-Nluc reporter destabilization hit call (MAPK1),kinase-Nluc reporter destabilization hit call (MAPK4),kinase-Nluc reporter destabilization hit call (MAPKAPK2),kinase-Nluc reporter destabilization hit call (MKNK1),kinase-Nluc reporter destabilization hit call (NTRK2),kinase-Nluc reporter destabilization hit call (NTRK3),kinase-Nluc reporter destabilization hit call (PAK4),kinase-Nluc reporter destabilization hit call (PBK),kinase-Nluc reporter destabilization hit call (PDGFRB),kinase-Nluc reporter destabilization hit call (PDK1)
O=c1cc(O)c2ccccc2o1 [4-Hydroxycoumarin] (10 µM),inactive: 0,inactive: 0,inactive: 0,inactive: 0,inactive: 0,inactive: 0,inactive: 0,inactive: 0,inactive: 0,inactive: 0,inactive: 0,inactive: 0,inactive: 0,inactive: 0,inactive: 0,inactive: 0,inactive: 0,inactive: 0,inactive: 0,inactive: 0
Cc1ccccc1-n1c(Cn2cnc3c(N)ncnc32)nc2cccc(C)c2c1=O (10 µM),inactive: 0,inactive: 0,inactive: 0,inactive: 0,inactive: 0,inactive: 0,inactive: 0,inactive: 0,inactive: 0,inactive: 0,inactive: 0,inactive: 0,inactive: 0,inactive: 0,inactive: 0,inactive: 0,inactive: 0,inactive: 0,inactive: 0,inactive: 0
CC(C)=CC[C@@H](OC(=O)CC(C)(C)O)C1=CC(=O)c2c(O)ccc(O)c2C1=O [β-Hydroxyisovalerylshikonin] (2.5 µM),inactive: 0,inactive: 0,inactive: 0,inactive: 0,inactive: 0,inactive: 0,inactive: 0,inactive: 0,inactive: 0,inactive: 0,inactive: 0,inactive: 0,inactive: 0,inactive: 0,inactive: 0,inactive: 0,inactive: 0,inactive: 0,inactive: 0,inactive: 0
O=c1ccc2cc(O[C@@H]3O[C@H](CO)[C@@H](O)[C@H](O)[C@H]3O)c(O)cc2o1 [Esculin] (10 µM),inactive: 0,inactive: 0,inactive: 0,inactive: 0,inactive: 0,inactive: 0,inactive: 0,inactive: 0,inactive: 0,inactive: 0,inactive: 0,inactive: 0,inactive: 0,inactive: 0,inactive: 0,inactive: 0,inactive: 0,inactive: 0,inactive: 0,inactive: 0
O=C(/C=C/c1ccccc1)OC[C@H]1O[C@@H](O[C@@H]2OC=C[C@H]3[C@H](O)[C@@H]4O[C@]4(CO)[C@@H]23)[C@H](O)[C@@H](O)[C@@H]1O [Picroside I] (10 µM),inactive: 0,inactive: 0,inactive: 0,inactive: 0,inactive: 0,inactive: 0,inactive: 0,inactive: 0,inactive: 0,inactive: 0,inactive: 0,inactive: 0,inactive: 0,inactive: 0,inactive: 0,inactive: 0,inactive: 0,inactive: 0,inactive: 0,inactive: 0
C[C@@H]1CC[C@H]2[C@@H](C)C(=O)O[C@@H]3O[C@@]4(C)CC[C@@H]1[C@]32OO4 [Artemisinin] (10 µM),inactive: 0,inactive: 0,inactive: 0,inactive: 0,inactive: 0,inactive: 0,inactive: 0,inactive: 0,inactive: 0,inactive: 0,inactive: 0,inactive: 0,inactive: 0,inactive: 0,inactive: 0,inactive: 0,inactive: 0,inactive: 0,inactive: 0,inactive: 0
CC(C)(C)c1cc(C=C(C#N)C#N)cc(Br)c1O (2.5 µM),inactive: 0,inactive: 0,inactive: 0,inactive: 0,inactive: 0,inactive: 0,inactive: 0,inactive: 0,inactive: 0,inactive: 0,inactive: 0,inactive: 0,inactive: 0,inactive: 0,inactive: 0,inactive: 0,inactive: 0,inactive: 0,inactive: 0,inactive: 0
O=C1C=CC[C@@H]2[C@H]3CCCN4CCC[C@@H](CN12)[C@@H]34 [Sophocarpine] (10 µM),inactive: 0,inactive: 0,inactive: 0,inactive: 0,inactive: 0,inactive: 0,inactive: 0,inactive: 0,inactive: 0,inactive: 0,inactive: 0,inactive: 0,inactive: 0,inactive: 0,inactive: 0,inactive: 0,inactive: 0,inactive: 0,inactive: 0,inactive: 0
C/C(O)=C(\C#N)C(=O)Nc1cc(Br)ccc1Br (10 µM),inactive: 0,inactive: 0,inactive: 0,inactive: 0,inactive: 0,inactive: 0,inactive: 0,inactive: 0,inactive: 0,inactive: 0,inactive: 0,inactive: 0,inactive: 0,inactive: 0,inactive: 0,inactive: 0,inactive: 0,inactive: 0,inactive: 0,inactive: 0
Nc1ncnc2c1ncn2[C@@H]1O[C@@H]2COP(O)(=S)O[C@H]2[C@H]1O (stereo not given in full) [Sp-cAMPS (sodium salt)] (10 µM),inactive: 0,inactive: 0,inactive: 0,inactive: 0,inactive: 0,inactive: 0,inactive: 0,inactive: 0,inactive: 0,inactive: 0,inactive: 0,inactive: 0,inactive: 0,inactive: 0,inactive: 0,inactive: 0,inactive: 0,inactive: 0,inactive: 0,inactive: 0
C[C@H](CCC(=O)O)C[C@H](C)C[C@H](C)C(=O)/C=C(\O)[C@H](C)C[C@H](C)C/C=C/[C@@H](C)[C@@H](O)[C@@H](C)[C@@H](O)C[C@@H]1CC[C@@](C)([C@H]2CC[C@@](C)([C@@H](C)O)O2)O1 [Ionomycin (calcium)] (2.5 µM),inactive: 0,inactive: 0,inactive: 0,inactive: 0,inactive: 0,inactive: 0,inactive: 0,inactive: 0,inactive: 0,inactive: 0,inactive: 0,inactive: 0,inactive: 0,inactive: 0,active: 1,inactive: 0,inactive: 0,inactive: 0,inactive: 0,inactive: 0
O=C1C=CC[C@@H]2[C@H]3CCCN4CCC[C@@H](CN12)[C@@H]34 [Sophocarpine (monohydrate)] (2.5 µM),inactive: 0,inactive: 0,inactive: 0,inactive: 0,inactive: 0,inactive: 0,inactive: 0,inactive: 0,inactive: 0,inactive: 0,inactive: 0,inactive: 0,inactive: 0,inactive: 0,inactive: 0,inactive: 0,inactive: 0,inactive: 0,inactive: 0,inactive: 0
Cc1[nH]ncc1-c1cc2nc([C@H]3CC4CCN3CC4)[nH]c(=O)c2s1 [(R)-Simurosertib] (10 µM),inactive: 0,inactive: 0,inactive: 0,inactive: 0,inactive: 0,inactive: 0,inactive: 0,inactive: 0,inactive: 0,inactive: 0,inactive: 0,inactive: 0,inactive: 0,inactive: 0,inactive: 0,inactive: 0,inactive: 0,inactive: 0,inactive: 0,inactive: 0
COc1ccc(N(C(=O)Oc2c(C)cccc2C)c2ccnc(Nc3ccc(N4CCN(C)CC4)cc3)n2)c(OC)c1 (2.5 µM),inactive: 0,inactive: 0,inactive: 0,inactive: 0,inactive: 0,inactive: 0,inactive: 0,inactive: 0,inactive: 0,inactive: 0,inactive: 0,inactive: 0,inactive: 0,inactive: 0,inactive: 0,inactive: 0,inactive: 0,inactive: 0,inactive: 0,inactive: 0
O=C(O)c1sc2cc(Cl)ccc2c1Cl (10 µM),inactive: 0,inactive: 0,inactive: 0,inactive: 0,inactive: 0,inactive: 0,inactive: 0,inactive: 0,inactive: 0,inactive: 0,inactive: 0,inactive: 0,inactive: 0,inactive: 0,inactive: 0,inactive: 0,inactive: 0,inactive: 0,inactive: 0,inactive: 0
O=C(O)c1nn(Cc2ccc(Cl)cc2Cl)c2ccccc12 [Lonidamine] (10 µM),inactive: 0,inactive: 0,inactive: 0,inactive: 0,inactive: 0,inactive: 0,inactive: 0,inactive: 0,inactive: 0,inactive: 0,inactive: 0,inactive: 0,inactive: 0,inactive: 0,inactive: 0,inactive: 0,inactive: 0,inactive: 0,inactive: 0,inactive: 0
CCOC(=O)c1c(/C(C#N)=C\N)c2ccc(Cl)c(Cl)c2n1C (10 µM),inactive: 0,inactive: 0,inactive: 0,inactive: 0,inactive: 0,inactive: 0,inactive: 0,inactive: 0,inactive: 0,inactive: 0,inactive: 0,inactive: 0,inactive: 0,inactive: 0,inactive: 0,inactive: 0,inactive: 0,inactive: 0,inactive: 0,inactive: 0

# An excerpt from above, showing only kinase-Nluc reporter destabilization hit call (NTRK2) and kinase-Nluc reporter destabilization hit call (MAPK1).
SMILES	kinase-Nluc reporter destabilization hit call (NTRK2)	kinase-Nluc reporter destabilization hit call (MAPK1)
CC(C)=CC[C@@H](OC(=O)CC(C)(C)O)C1=CC(=O)c2c(O)ccc(O)c2C1=O [β-Hydroxyisovalerylshikonin] (2.5 µM)	inactive: 0	inactive: 0
O=c1ccc2cc(O[C@@H]3O[C@H](CO)[C@@H](O)[C@H](O)[C@H]3O)c(O)cc2o1 [Esculin] (10 µM)	inactive: 0	inactive: 0
